# Reference: patent publication US20110190365A1, “Insecticidal 4-phenyl-1H-pyrazoles” (Bayer Crop Science AG, priority 2008, published 2011)
# Some entries share one result that the patent states for a list of compounds. For part of these data: At least one structure is not confirmed: it was looked up by name or label, or the drawing left a doubt.
# Key:
# Type in all cases: in vivo
# [1] = tested on: larvae of the mustard beetle (Phaedon cochleariae); test: Phaedon cochleariae test (PHAECO spray treatment); conditions: application rate 500 g/ha, Chinese cabbage leaf discs sprayed, after 7 days
# Description: Phaedon cochleariae Test (PHAECO Spray Treatment)
# (§1) Solvent: 78.0 parts by weight of acetone • • 1.5 parts by weight of dimethylformamide Emulsifier: 0.5 part by weight of alkylaryl polyglycol ether
# (§2) To produce a suitable preparation of active compound, 1 part by weight of active compound is mixed with the stated amounts of solvent and emulsifier, and the concentrate is diluted with emulsifier-containing water to the desired concentration.
# Discs of Chinese cabbage (Brassica pekinensis) are sprayed with an active compound preparation of the desired concentration and, after drying, populated with larvae of the mustard beetle (Phaedon cochleariae).
# After 7 days, the effect in % is determined. 100% means that all beetle larvae have been killed; 0% means that none of the beetle larvae have been killed.
# [2] = tested on: caterpillars of the armyworm (Spodoptera frugiperda); test: Spodoptera frugiperda test (SPODFR spray treatment); conditions: application rate 500 g/ha, maize leaf discs sprayed, after 7 days
# Description: Spodoptera frugiperda Test (SPODFR Spray Treatment)
# as §1, §2
# Discs of maize leaves (Zea mays) are sprayed with an active compound preparation of the desired concentration and, after drying, populated with caterpillars of the armyworm (Spodoptera frugiperda).
# After 7 days, the effect in % is determined 100% means that all caterpillars have been killed; 0% means that none of the caterpillars have been killed.
# [3] = tested on: greenhouse red spider mite (Tetranychus urticae); test: Tetranychus test, OP-resistant (TETRUR spray treatment); conditions: bean leaf discs sprayed
SMILES,effect in % (beetle larvae killed) [1] [%],effect in % (caterpillars killed) [2] [%],effect in % (spider mites killed) ([3]; application rate 500 g/ha) [%],effect in % (spider mites killed) ([3]; application rate 100 g/ha) [%]
COC(=O)CNC(=O)c1ccc(-n2nc(C(F)(F)F)c(-c3cc(Cl)cc(Cl)c3)c2N)cc1C [I-A-Q2-030],> 80,> 80,,
Cc1cc(-n2nc(C(F)(F)F)c(-c3cc(Cl)cc(Cl)c3)c2N)ccc1C(=O)N(C)CC(F)(F)C(F)F [I-A-Q2-033],> 80,> 80,,
Cc1cc(-n2nc(C(F)(F)F)c(-c3cc(Cl)cc(Cl)c3)c2N)ccc1C(=O)NCc1ccc(F)cn1 [I-A-Q2-039],> 80,> 80,,
Cc1cc(-n2nc(C(F)(F)F)c(-c3cc(Cl)cc(Cl)c3)c2N)ccc1C(=O)NCc1cc(F)cc(F)c1 [I-A-Q2-040],> 80,,> 80,
Cc1nc(CNC(=O)c2ccc(-n3nc(C(F)(F)F)c(-c4cc(Cl)cc(Cl)c4)c3N)cc2C)cs1 [I-A-Q2-041],> 80,,> 80,
Cc1cc(-n2nc(C(F)(F)F)c(-c3cc(Cl)cc(Cl)c3)c2N)ccc1C(=O)NC1COC1 [I-A-Q2-044],> 80,> 80,,
Cc1cc(-n2nc(C(F)(F)F)c(-c3cc(Cl)cc(Cl)c3)c2N)ccc1C(=O)NCc1cc(F)ccc1F [I-A-Q2-046],> 80,,,> 80
Cc1cnc2c(c1)CCCC2NC(=O)c1ccc(-n2nc(C(F)(F)F)c(-c3cc(Cl)cc(Cl)c3)c2N)cc1C (stereo not drawn) [I-A-Q2-051],> 80,,> 80,
Cc1cc(-n2nc(C(F)(F)F)c(-c3cc(Cl)cc(Cl)c3)c2N)ccc1C(=O)NC(c1ccccn1)C(F)(F)F (stereo not drawn) [I-A-Q2-054],> 80,> 80,,
Cc1cc(-n2nc(C(F)(F)F)c(-c3cc(Cl)cc(Cl)c3)c2N)ccc1C(=O)NCc1cn(C)cn1 [I-A-Q2-058],> 80,> 80,,
Cc1cc(-n2nc(C(F)(F)F)c(-c3cc(Cl)cc(Cl)c3)c2N)ccc1C(=O)NCCC(F)=C(F)F [I-A-Q2-061],> 80,> 80,,
C=CCNC(=O)c1ccc(-n2nc(C(F)(F)F)c(-c3cc(Cl)cc(Cl)c3)c2N)cc1C [I-A-Q2-062],> 80,> 80,,
Nc1c(-c2cc(Cl)cc(Cl)c2)c(C(F)(F)F)nn1-c1ccc(C(=O)NCc2cccnc2)cn1 [I-A-Q2-107],,> 80,,
Cc1cc(-n2nc(C(F)(F)F)c(-c3cc(Cl)cc(Cl)c3)c2N)ccc1C(=O)NCc1ccccc1F [I-A-Q2-112],> 80,,> 80,
CC(NC(=O)c1ccc(-n2nc(C(F)(F)F)c(-c3ccc(Cl)c(Cl)c3)c2N)cc1)C(F)(F)F (stereo not drawn) [I-A-Q2-155],> 80,> 80,,
CC(NC(=O)c1ccc(-n2nc(C(F)(F)F)c(-c3ccc(Cl)c(Cl)c3)c2N)cc1)c1ccccn1 (stereo not drawn) [I-A-Q2-160],> 80,> 80,,
CC(NC(=O)c1ccc(-n2nc(C(F)(F)F)c(-c3ccc(Cl)c(F)c3)c2N)cc1)C(F)(F)F (stereo not drawn) [I-A-Q2-166],> 80,> 80,,
Cc1cc(-n2nc(C(F)(F)F)c(-c3cc(Cl)cc(Cl)c3)c2N)ccc1C(=O)NCc1cc(C(F)(F)F)c(Cl)cn1 [I-A-Q2-207],> 80,> 80,,
Cc1cc(-n2nc(C(F)(F)F)c(-c3cc(Cl)cc(Cl)c3)c2N)ccc1C(=O)N(C)C(C)c1ccncc1 (stereo not drawn) [I-A-Q2-211],> 80,,,
Cc1cc(-n2nc(C(F)(F)F)c(-c3cc(Cl)cc(Cl)c3)c2N)ccc1C(=O)NC(C)c1ccc(Cl)cc1 (stereo not drawn) [I-A-Q2-213],> 80,,,
Cc1cc(-n2nc(C(F)(F)F)c(-c3cc(Cl)cc(Cl)c3)c2N)ccc1C(=O)NCc1cccc(Cl)c1 [I-A-Q2-215],> 80,,,
Cc1cc(-n2nc(C(F)(F)F)c(-c3cc(Cl)cc(Cl)c3)c2N)ccc1C(=O)NC(CC(F)(F)F)C(F)(F)F (stereo not drawn) [I-A-Q2-217],> 80,> 80,,
Cc1cc(-n2nc(C(F)(F)F)c(-c3cc(Cl)cc(Cl)c3)c2N)ccc1C(=O)NC1CCS(=O)(=O)C1 (stereo not drawn) [I-A-Q2-218],> 80,> 80,,
Cc1cc(-n2nc(C(F)(F)F)c(-c3cc(Cl)cc(Cl)c3)c2N)ccc1C(=O)NC(C)(C)C [I-A-Q2-221],> 80,> 80,,
Cc1cc(-n2nc(C(F)(F)F)c(-c3cc(Cl)cc(Cl)c3)c2N)ccc1C(=O)NC1CCCCC1 [I-A-Q2-222],> 80,,,
CCC(CC)NC(=O)c1ccc(-n2nc(C(F)(F)F)c(-c3cc(Cl)cc(Cl)c3)c2N)cc1C [I-A-Q2-225],> 80,,,

SMILES,effect in % (beetle larvae killed) [1] [%],effect in % (caterpillars killed) [2] [%],effect in % (spider mites killed) ([3]; application rate 500 g/ha) [%],effect in % (spider mites killed) ([3]; application rate 100 g/ha) [%]
Cc1cc(-n2nc(C(F)(F)F)c(-c3cc(Cl)cc(Cl)c3)c2N)ccc1C(=O)NCCc1ccccn1 [I-A-Q2-226],> 80,,,
Cc1cc(-n2nc(C(F)(F)F)c(-c3cc(Cl)cc(Cl)c3)c2N)ccc1C(=O)NC1CC1 [I-A-Q2-228],> 80,,,
Cc1cc(-n2nc(C(F)(F)F)c(-c3cc(Cl)cc(Cl)c3)c2N)ccc1C(=O)NCc1ncc(C(F)(F)F)cc1Cl [I-A-Q2-230],> 80,> 80,,
Cc1cc(-n2nc(C(F)(F)F)c(-c3cc(Cl)cc(Cl)c3)c2N)ccc1C(=O)NCc1ccc(C(F)(F)F)cn1 [I-A-Q2-233],> 80,,,
Cc1cc(-n2nc(C(F)(F)F)c(-c3cc(Cl)cc(Cl)c3)c2N)ccc1C(=O)NC(C)c1ccncc1 (stereo not drawn) [I-A-Q2-234],> 80,,,
Cc1cc(-n2nc(C(F)(F)F)c(-c3cc(Cl)cc(Cl)c3)c2N)ccc1C(=O)N(C)CC(F)(F)F [I-A-Q2-236],> 80,> 80,,
CCCCCNC(=O)c1ccc(-n2nc(C(F)(F)F)c(-c3cc(Cl)cc(Cl)c3)c2N)cc1C [I-A-Q2-237],> 80,,,
C#CCNC(=O)c1ccc(-n2nc(C(F)(F)F)c(-c3cc(Cl)cc(Cl)c3)c2N)cc1C [I-A-Q2-238],> 80,> 80,,
Cc1cc(-n2nc(C(F)(F)F)c(-c3cc(Cl)cc(Cl)c3)c2N)ccc1C(=O)NC(c1ccccc1)C(F)(F)F (stereo not drawn) [I-A-Q2-241],> 80,,,
Cc1cc(-n2nc(C(F)(F)F)c(-c3cc(Cl)cc(Cl)c3)c2N)ccc1C(=O)NC(c1ccc(C(F)(F)F)cc1)C(F)(F)F (stereo not drawn) [I-A-Q2-242],> 80,> 80,,
Cc1cc(-n2nc(C(F)(F)F)c(-c3cc(Cl)cc(Cl)c3)c2N)ccc1C(=O)NC1(c2ccccn2)CC1 [I-A-Q2-244],> 80,> 80,,
Cc1cc(-n2nc(C(F)(F)F)c(-c3cc(Cl)cc(Cl)c3)c2N)ccc1C(=O)NC(c1ccc(N(C)C)cc1)C(F)(F)F (stereo not drawn) [I-A-Q2-246],> 80,> 80,,
"N#Cc1cc(-n2nc(C(F)(F)F)c(-c3cc(Cl)cc(C(F)(F)F)c3)c2N)ccc1F [I-A-Q4-009, 5-[5-Amino-4-(3-chloro-5-trifluoromethylphenyl)-3-trifluoromethylpyrazol-1-yl]-2-fluorobenzonitrile]",,> 80,,
Nc1c(-c2cc(Cl)cc(Cl)c2)c(C(F)(F)F)nn1-c1ccc(Cl)cn1 [I-A-Q4-014],,> 80,,
Nc1c(-c2cc(Cl)cc(C(F)(F)F)c2)c(C(F)(F)F)nn1-c1ccc(Cl)cn1 [I-A-Q4-016],,> 80,,
Nc1c(-c2cc(F)cc(Cl)c2)c(C(F)(F)F)nn1-c1ccc(Cl)cn1 [I-A-Q4-040],> 80,> 80,,
Nc1c(-c2ccc(Cl)cc2)c(C(F)(F)F)nn1-c1ccc(Cl)cn1 [I-A-Q4-041],,> 80,,
Nc1c(-c2ccc(Br)cc2)c(C(F)(F)F)nn1-c1ccc(Cl)cn1 [I-A-Q4-042],> 80,> 80,,
Nc1c(-c2ccc(Cl)c(Cl)c2)c(C(F)(F)F)nn1-c1ccc(Cl)cn1 [I-A-Q4-043],,> 80,,
Nc1c(-c2ccc(Cl)c(F)c2)c(C(F)(F)F)nn1-c1ccc(Cl)cn1 [I-A-Q4-048],> 80,> 80,,
Nc1c(-c2ccc(I)cc2)c(C(F)(F)F)nn1-c1ccc(Cl)cn1 [I-A-Q4-051],,> 80,,
Nc1c(-c2cc(F)c(F)c(F)c2)c(C(F)(F)F)nn1-c1ccc(Cl)cn1 [I-A-Q4-053],,> 80,,
N#Cc1cc(-n2nc(C(F)(F)F)c(-c3cc(Cl)cc(Cl)c3)c2N)ccc1I [I-A-Q4-102],> 80,> 80,,
Nc1[nH]nc(C(F)(F)F)c1-c1cc(Cl)cc(Cl)c1 [IX-021],,> 80,,
Nc1[nH]nc(C(F)(F)F)c1-c1ccc(Cl)c(Cl)c1 [IX-038],,> 80,,
